Results on 10 substances are retold here after article PMC4096430.

These are yes or no findings as the source states them, for the method shown. In cells and extracts the contact can be indirect. Some binding calls cover weakened binding; strength is not graded here.

Assay [1] has as its target CIN85 (Cbl-interacting protein of 85 kDa), wild type, Flag-tagged (UniProt Q96B97). In words: cross-linking; lysate of HEK293 cells expressing the CIN85 mutant in 0.2 M triethanolamine pH 8.0; 100 uM dimethylpimelimidate (DMP), 1 hour at 4°C; stopped with 100 mM Tris-HCl pH 7.5; SDS-PAGE and western blot.
The target in assay [2] is c-Cbl (Casitas B-lineage lymphoma proto-oncoprotein), HA-tagged (UniProt P22681). In words: co-IP; HA-Cbl and Flag-tagged CIN85 mutants co-expressed in HEK293 cells; HA-Cbl immunoprecipitated by anti-HA antibody, CIN85 detected by anti-Flag immunoblot; lysis in 1% Triton X-100, 10% glycerol, 20 mM Hepes pH 7.4, 150 mM NaCl, 1 mM EDTA. (A western blot detects proteins with antibodies after separation by electrophoresis.)

The target in assay [3] is CIN85 (K645/646A), Flag-tagged (UniProt Q96B97). Nature of the assay: cross-linking; lysate of HEK293 cells expressing the CIN85 mutant in 0.2 M triethanolamine pH 8.0; 100 uM dimethylpimelimidate (DMP), 1 hour at 4°C; stopped with 100 mM Tris-HCl pH 7.5; SDS-PAGE and western blot.
Assay [4] addresses CIN85 (K646/R648A), Flag-tagged (UniProt Q96B97). The assay is described as above.
Assay [5] addresses CIN85 (R648/650A), Flag-tagged (UniProt Q96B97). The description is as above.
Assay [6] deals with CIN85 with mutation of K645 alone (UniProt Q96B97). In words: cross-linking; results not shown; single point mutants of Group A; format not told (taken as the DMP cross-link of the other mutants).
For assay [7], the target named is CIN85 with mutation of K646 alone (UniProt Q96B97). The assay is described as above.
In assay [8] the target is CIN85 with mutation of K646, R648 and R650, Flag-tagged (UniProt Q96B97). In words: cross-linking; lysate of HEK293 cells expressing the CIN85 mutant in 0.2 M triethanolamine pH 8.0; 100 uM dimethylpimelimidate (DMP), 1 hour at 4°C; stopped with 100 mM Tris-HCl pH 7.5; SDS-PAGE and western blot.
Assay [9] has as its target CIN85 with mutation of R648 alone (UniProt Q96B97). Nature of the assay: cross-linking; results not shown; single point mutants of Group A; format not told (taken as the DMP cross-link of the other mutants).
The target of assay [10] is CIN85 with mutation of R650 alone (UniProt Q96B97). The assay is described as above.
Assay [11] has as its target c-Cbl (Casitas B-lineage lymphoma proto-oncoprotein), HA-tagged (UniProt P22681). In words: co-IP; COS7 cells co-expressing CIN85 mutant and HA-Cbl, serum starved and stimulated with 25 ng/ml EGF for 30 minutes; HA-Cbl immunoprecipitated by anti-HA antibody; CIN85 mutants and EGFR detected by anti-Flag and anti-EGFR immunoblot.

As to “CIN85 (Cbl-interacting protein of 85 kDa), wild type, Flag-tagged (from UniProt Q96B97 1-665)”, the binding result in assay [1] and in [2] was “binds” in each case.

For the substance “CIN85 (K645/646A), Flag-tagged (from UniProt Q96B97 1-665)”, the binding result in [3] is “binds”.

Consider “CIN85 (K646/R648A), Flag-tagged (from UniProt Q96B97 1-665)”, for which the binding result in assay [4] is reported as “binds”.

Regarding “CIN85 (R648/650A), Flag-tagged (from UniProt Q96B97 1-665)”, in assay [5], the binding result is listed as “binds”.

With “CIN85 with mutation of K645 alone (from UniProt Q96B97 1-665)”, in assay [6], the binding entry is recorded as “binds”.

Turning to “CIN85 with mutation of K646 alone (from UniProt Q96B97 1-665)”, the binding entry in assay [7] is “binds”.

Turning to “CIN85 with mutation of K646, R648 and R650, Flag-tagged (from UniProt Q96B97 1-665)”, in assay [8], the binding entry is listed as “binds”.

For the substance “CIN85 with mutation of R648 alone (from UniProt Q96B97 1-665)”, the binding entry in [9] was “binds”.

For “CIN85 with mutation of R650 alone (from UniProt Q96B97 1-665)”, the binding entry in assay [10] is on record as “binds”.

Regarding “CIN85-B4m (Group B: K627, K631, R632 and K635 mutated to alanine), Flag-tagged (from UniProt Q96B97 1-665)”, the binding entry in assay [11] and in assay [2] was “binds” each time.
